# Source: PubChem BioAssay AID1259308 (NCATS, 2017)
# Screen: 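Candidate targets for better recombinant protein yield in mammalian cells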 (primary screen)
# Cells: human HEK293 embryonic kidney cells stably expressing firefly luciferase (HEK-CMV-Luc2-Hygro)
# Knock-down reagent: single siRNA against human genes, 0.8 pmol siRNA per well
# Duration: 72 h
# Measured: 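Reporter luminescence and viable-cell signal on separate replicate plates, given as percent of non-targeting control and median/MAD z-scores, plus per-cell luciferase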
# Reading the numbers: total luciferase, z-score and total luciferase, % of control: higher = more reporter protein produced; luciferase per cell, z-score: higher = more reporter output per viable cell; viable cells, % of control: higher = more viable cells
# Call rule: 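An siRNA counts as active if its total luciferase robust z-score exceeds 3; genes with two or more such siRNAs out of three were retested with fresh siRNAs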
# Calls: active = raised luciferase; inactive = no rise
# Shown is an unselected part of about 59,000 deposited reagents. Of all reagents, about 1,510 (2.6%) got an active call. 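Calls use total luciferase alone and ignore viability, so some active siRNAs may act by altering cell number.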 Unmarked entries are inactive.
target,PubChem SID,"total luciferase, z-score","total luciferase, % of control","luciferase per cell, z-score","viable cells, % of control"
ZKSCAN2 (zinc finger with KRAB and SCAN domains 2),SID160764600,-0.0227,81.4,-0.402,101
ZKSCAN2 (zinc finger with KRAB and SCAN domains 2),SID160764601,0.0707,83.3,-0.133,96.4
ZKSCAN2 (zinc finger with KRAB and SCAN domains 2),SID160764602,1.07,103,0.232,108
OGT (O-linked N-acetylglucosamine (GlcNAc) transferase),SID160720117,-0.308,75.8,0.336,77.5
OGT (O-linked N-acetylglucosamine (GlcNAc) transferase),SID160720118,-1.08,60.4,-1.22,92.9
OGT (O-linked N-acetylglucosamine (GlcNAc) transferase),SID160720119,0.265,87.2,0.475,85.9
ZNF83 (zinc finger protein 83),SID160744314,1.27,107,0.639,101
ZNF83 (zinc finger protein 83),SID160744315,4.11 (active),164,2.73,89.1
ZNF83 (zinc finger protein 83),SID160744316,-0.145,79,0.924,69.2
ZNF83 (zinc finger protein 83),SID160773205,0.9,99.8,1.44,76.2
ZNF83 (zinc finger protein 83),SID160773208,-0.649,69,-0.855,96.5
ZNF83 (zinc finger protein 83),SID160773209,-0.477,72.4,-0.661,96.3
KIR2DS1,SID160776289,2.26,127,1.14,105
KIR2DS1,SID160776290,-0.812,65.7,-0.565,85.3
KIR2DS1,SID160776291,-1.08,60.3,-1.35,96.2
RND3 (Rho family GTPase 3),SID160719796,0.648,94.8,1.64,68.7
RND3 (Rho family GTPase 3),SID160719807,-0.479,72.4,-0.654,96.1
RND3 (Rho family GTPase 3),SID160731189,-0.522,71.5,-0.538,92.1
PLEKHO2 (pleckstrin homology domain containing O2),SID160750327,0.971,101,1.08,85.1
PLEKHO2 (pleckstrin homology domain containing O2),SID160750328,1.02,102,0.157,109
PLEKHO2 (pleckstrin homology domain containing O2),SID160750329,0.442,90.7,0.018,101
ECT2L (epithelial cell transforming 2 like),SID160764881,0.209,86.1,0.228,90.6
ECT2L (epithelial cell transforming 2 like),SID160764882,-0.0219,81.5,-0.548,105
ECT2L (epithelial cell transforming 2 like),SID160764883,1.9,120,1.33,94.3

Entries listed so far whose target name starts with E or e (3):
target,PubChem SID,"total luciferase, z-score","total luciferase, % of control","luciferase per cell, z-score","viable cells, % of control"
ECT2L (epithelial cell transforming 2 like),SID160764881,0.209,86.1,0.228,90.6
ECT2L (epithelial cell transforming 2 like),SID160764882,-0.0219,81.5,-0.548,105
ECT2L (epithelial cell transforming 2 like),SID160764883,1.9,120,1.33,94.3
